From patent US20140309109A1, “N-Thio-anthranilamide compounds and their use as pesticides” (BASF SE, priority 2011, published 2014)
Some results were stated once for a whole list of compounds, not compound by compound.

Legend:
Type in all cases: in vivo
[1] = system: Cowpea Aphid (Aphis craccivora); assay: Cowpea aphid spray test on potted cowpea plants; details: 300 ppm; assessed after 72 hours; sprayed cowpea plants
Protocol: B.1 Cowpea Aphid (Aphis craccivora)
The active compound is dissolved at the desired concentration in a mixture of 1:1 (vol:vol) distilled water:acetone. Surfactant (Alkamuls® EL 620) is added at a rate of 0.1% (vol/vol). The test solution is prepared at the day of use.
Potted cowpea plants were colonized with approximately 50-100 aphids of various stages by manually transferring a leaf tissue cut from infested plant 24 hours before application. Plants were sprayed after the pest population has been recorded. Treated plants are maintained on light carts at about 28° C. Percent mortality was assessed after 72 hours

[2] = system: Diamond Back Moth (Plutella xylostella); assay: Diamond back moth cabbage leaf dip test; details: 300 ppm; 72 hours after treatment; 3rd instar larvae on dipped cabbage leaves
Protocol: B.2 Diamond Back Moth (Plutella xylostella)
The active compound is dissolved at the desired concentration in a mixture of 1:1 (vol:vol) distilled water:aceteone. Surfactant (Alkamuls® EL 620) is added at a rate of 0.1% (vol/vol).The test solution is prepared at the day of use.
Leaves of cabbage were dipped in test solution and air-dried. Treated leaves were placed in petri dish eslined with moist filter paper and inoculated with ten 3rd instar larvae. Mortality was recorded 72 hours after treatment. Feeding damages were also recorded using a scale of 0-100%.

[3] = system: Orchid Thrips (Dichromothrips corbetti); assay: Orchid thrips floral-immersion test; details: 300 ppm; 72 hours after treatment; adult thrips on dipped orchid flowers
Protocol: B.3 Orchid Thrips (Dichromothrips corbetti)
Dichromothrips corbetti adults used for bioassay were obtained from a colony maintained continuously under laboratory conditions. For testing purposes, the test compound is diluted in a 1:1 mixture of acetone:water (vol:vol), plus 0.01% vol/vol Alkamuls® EL 620 surfactant.
Thrips potency of each compound was evaluated by using a floral-immersion technique. Plastic petri dishes were used as test arenas. All petals of individual, intact orchid flowers were dipped into treatment solution and allowed to dry. Treated flowers were placed into individual petri dishes along with about 20 adult thrips. The petri dishes were then covered with lids. All test arenas were held under continuous light and a temperature of about 28° C. for duration of the assay. After 3 days, the numbers of live thrips were counted on each flower, and along inner walls of each petri dish. The percent mortality was recorded 72 hours after treatment.

[4] = system: Southern Armyworm (Spodoptera eridania); assay: Southern armyworm lima bean foliar spray test; details: 1 ppm; 4 days after treatment; larvae on sprayed lima bean plants
Protocol: B.5 Southern Armyworm (Spodoptera eridania)
(§1) The active compounds were formulated in cyclohexanone as a 10,000 ppm solution supplied in tubes. The tubes were inserted into an automated electrostatic sprayer equipped with an atomizing nozzle and they served as stock solutions for which lower dilutions were made in 50% acetone:50% water (v/v). A nonionic surfactant (Kinetic®) was included in the solution at a volume of 0.01% (v/v).
(§2) Lima bean plants (variety Sieva) were grown 2 plants to a pot and selected for treatment at the 1st true leaf stage. Test solutions were sprayed onto the foliage by an automated electrostatic plant sprayer equipped with an atomizing spray nozzle. The plants were dried in the sprayer fume hood and then removed from the sprayer. Each pot was placed into perforated plastic bags with a zip closure. About 10 to 11 armyworm larvae were placed into the bag and the bags zipped closed. Test plants were maintained in a growth room at about 25° C. and about 20-40% relative humidity for 4 days, avoiding direct exposure to fluorescent light (24 hour photoperiod) to prevent trapping of heat inside the bags. Mortality and reduced feeding were assessed 4 days after treatment, compared to untreated control plants.

[5] = system: Vetch Aphid (Megoura viciae); assay: Vetch aphid broad bean leaf disk microtiter test; details: 2500 ppm; 5 days; adult aphids on sprayed broad bean leaf disks
Protocol: B.6 Vetch Aphid (Megoura viciae)
For evaluating control of vetch aphid (Megoura viciae) through contact or systemic means the test unit consisted of 24-well-microtiter plates containing broad bean leaf disks.
The compounds were formulated using a solution containing 75% v/v water and 25% v/v DMSO. Different concentrations of formulated compounds were sprayed onto the leaf disks at 2.5 μl, using a custom built micro atomizer, at two replications.
After application, the leaf disks were air-dried and 5-8 adult aphids placed on the leaf disks inside the microtiter plate wells. The aphids were then allowed to suck on the treated leaf disks and incubated at about 23±1° C. and about 50±5% relative humidity for 5 days. Aphid mortality and fecundity was then visually assessed.

[6] = system: Tobacco Budworm (Heliothis virescens); assay: Tobacco budworm I (B.7a) cotton plant spray test; details: 2500 ppm; 4 days after treatment; larvae on sprayed cotton plants (B.7a)
Protocol: B.7a Tobacco Budworm (Heliothis virescens) I
as §1
as §2, with “Cotton” for “Lima bean”, “plants” for “plants (variety Sieva)”, “cotyledon” for “1st true leaf”, “budworm” for “armyworm”

[7] = system: Tobacco Budworm (Heliothis virescens); assay: Tobacco budworm I (B.7b) cotton plant spray test; details: 10 ppm; 4 days after treatment; larvae on sprayed cotton plants (B.7b)
Protocol: B.7b Tobacco Budworm (Heliothis virescens) I
as §1
as §2, with “Cotton” for “Lima bean”, “plants” for “plants (variety Sieva)”, “cotyledon” for “1st true leaf”, “budworm” for “armyworm”

[8] = system: Boll Weevil (Anthonomus grandis); assay: Boll weevil insect diet microtiter test; details: 2500 ppm; 5 days; eggs on sprayed insect diet
Protocol: B.8 Boll Weevil (Anthonomus grandis)
For evaluating control of boll weevil (Anthonomus grandis) the test unit consisted of 24-well-microtiter plates containing an insect diet and 20-30 A. grandis eggs.
The compounds were formulated using a solution containing 75% v/v water and 25% v/v DMSO. Different concentrations of formulated compounds were sprayed onto the insect diet at 20 μl, using a custom built micro atomizer, at two replications.
After application, microtiter plates were incubated at about 23±1° C. and about 50±5% relative humidity for 5 days. Egg and larval mortality was then visually assessed.

[9] = system: Colorado Potato Beetle (Leptinotarsa decemlineata); assay: Colorado potato beetle eggplant foliage spray test; details: 10 ppm; 4 days after treatment; larvae on sprayed eggplant foliage
Protocol: B.9 Colorado Potato Beetle (Leptinotarsa decemlineata)
as §1
Eggplants were grown 2 plants to a pot and were selected for treatment at the 1st true leaf stage. Test solutions were sprayed onto the foliage by an automated electrostatic plant sprayer equipped with an atomizing spray nozzle. The plants were dried in the sprayer fume hood and then removed from the sprayer. The treated foliage was then cut and removed from the pot and placed in a Petri dish lined with moistened filter pa-per. Five beetle larvae were introduced into each Petri dish and the dish was covered by a Petri dish lid. Petri dishes were maintained in a growth room at about 25° C. and about 20-40% relative humidity for 4 days, avoiding direct exposure to fluorescent light (24 hour photoperiod) to prevent trapping of heat inside the dishes. Mortality and reduced feeding were assessed 4 days after treatment, compared to untreated control plants.

CCS(=NC(=O)c1cc(Cl)cc(C)c1NC(=O)c1cc(C(F)(F)F)nn1-c1ncccc1Cl)C1CC1 (stereo not drawn) [Compound 4]
at least 75%: mortality in comparison with untreated controls [1] | mortality in comparison with untreated controls [2] | mortality in comparison with untreated controls [3] | mortality in comparison with untreated controls [4] | mortality in comparison with untreated controls [5] | mortality in comparison with untreated controls [6] | mortality in comparison with untreated controls [7] | mortality (egg and larval) in comparison with untreated controls [8] | mortality in comparison with untreated controls [9]

Cc1cc(Cl)cc(C(=O)N=S(CC2CC2)CC2CC2)c1NC(=O)c1cc(C(F)(F)F)nn1-c1ncccc1Cl [Compound 3]
at least 75%: mortality in comparison with untreated controls [1] | mortality in comparison with untreated controls [2] | mortality in comparison with untreated controls [3] | mortality in comparison with untreated controls [4] | mortality in comparison with untreated controls [5] | mortality in comparison with untreated controls [6] | mortality in comparison with untreated controls [7] | mortality (egg and larval) in comparison with untreated controls [8] | mortality in comparison with untreated controls [9]
